Results deposited as PubChem BioAssay AID1259282 (Sanger Institute, 2017)
Test: 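siRNA screen across the kinome seeking drug combinations lethal to colorectal cancer cells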 (primary screen). System: DIFI human colorectal cancer cell line. Reagents: siRNA pool against human genes. Challenge: anchor drug at a mild dose (BYL719 1 µM, cetuximab 5 µg/ml, trametinib 10 nM) or DMSO vehicle; exposure time not given. Read-out: 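Robust z-score and replicate-mean viability versus non-targeting pool without drug, plus a synergy score for each low-dose anchor drug (BYL719, cetuximab, trametinib)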. Reading the numbers: robust z-score, knock-down alone: higher = more viable cells than typical knock-down; viability, knock-down alone: higher = more viable cells. Units: viability, knock-down alone in fraction of control. Active means: 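Essential when the robust z-score of the knock-down without drug falls below -3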. Meaning of the calls: active = essential (knock-down alone, z below -3); inactive = not essential.
The deposit covers 794 reagents; shown is an unselected part. 11 of them (1.4%) count as active. 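Calls flag knock-downs that lower viability without drug; drug synergy appears only in the synergy scores; exposure time not stated.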 Unmarked entries are inactive. Viability is capped at 1. Further read-outs or replicates are left out here. No sequences are given here. The record does not give: the amount of reagent, the time to read-out.

AK5 (adenylate kinase 5)
- robust z-score, knock-down alone: 0.715
- viability, knock-down alone: 1

EPHB3 (EPH receptor B3)
- robust z-score, knock-down alone: -2.45
- viability, knock-down alone: 0.54

CSNK2B (casein kinase 2 beta)
- robust z-score, knock-down alone: 0.715
- viability, knock-down alone: 1

COQ8B (coenzyme Q8B)
- robust z-score, knock-down alone: 0.715
- viability, knock-down alone: 1

PDK2 (pyruvate dehydrogenase kinase 2)
- robust z-score, knock-down alone: 0.451
- viability, knock-down alone: 0.962

CSNK1A1L (casein kinase 1 alpha 1 like)
- robust z-score, knock-down alone: 0.715
- viability, knock-down alone: 1

THNSL1 (threonine synthase like 1)
- robust z-score, knock-down alone: 0.632
- viability, knock-down alone: 0.988

Next part (2 carried over from the part before).
CSNK1A1L (casein kinase 1 alpha 1 like)
- robust z-score, knock-down alone: 0.715
- viability, knock-down alone: 1

THNSL1 (threonine synthase like 1)
- robust z-score, knock-down alone: 0.632
- viability, knock-down alone: 0.988

NEK10 (NIMA related kinase 10)
- robust z-score, knock-down alone: 0.715
- viability, knock-down alone: 1

RPS6KA6 (ribosomal protein S6 kinase A6)
- robust z-score, knock-down alone: -0.14
- viability, knock-down alone: 0.876

MAPK10 (mitogen-activated protein kinase 10)
- robust z-score, knock-down alone: -0.257
- viability, knock-down alone: 0.859

PCK2 (phosphoenolpyruvate carboxykinase 2, mitochondrial)
- robust z-score, knock-down alone: 0.715
- viability, knock-down alone: 1

PFKM (phosphofructokinase, muscle)
- robust z-score, knock-down alone: 0.715
- viability, knock-down alone: 1

LIMK2 (LIM domain kinase 2)
- robust z-score, knock-down alone: 0.715
- viability, knock-down alone: 1

NTRK2 (neurotrophic receptor tyrosine kinase 2)
- robust z-score, knock-down alone: 0.715
- viability, knock-down alone: 1

CASK (calcium/calmodulin dependent serine protein kinase)
- robust z-score, knock-down alone: -0.731
- viability, knock-down alone: 0.79

JAK1 (Janus kinase 1)
- robust z-score, knock-down alone: 0.715
- viability, knock-down alone: 1

FLT4 (fms related receptor tyrosine kinase 4)
- robust z-score, knock-down alone: -0.135
- viability, knock-down alone: 0.877

DLG2 (discs large MAGUK scaffold protein 2)
- robust z-score, knock-down alone: 0.715
- viability, knock-down alone: 1

FGFRL1 (fibroblast growth factor receptor like 1)
- robust z-score, knock-down alone: 0.636
- viability, knock-down alone: 0.989
